# This is one part of the list.
# Experiments:
# Experiment in all cases: glycan array binding signal (z-score within array); higher = stronger binding
# Settings in all cases: glycan notation: IUPAC condensed, linker removed
# [1] = target: Gal(b1-2)Gal
# Outline: (§1)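 From the Consortium for Functional Glycomics database, 3228 arrays were curated, keeping only those whose protein sequence was available. Binding is given as a within-array Z-score averaged across arrays sharing a protein sequence and across linkers. Negative Z-scores can be read as non-binding.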
# [2] = target: Gal(b1-3)Gal
# Outline: as §1
# [3] = target: Gal(b1-3)Gal(b1-4)GlcNAc
# Outline: as §1
# [4] = target: Gal(b1-3)GalNAc
# Outline: as §1
# [5] = target: Gal(b1-3)GalNAc(a1-3)[Fuc(a1-2)]Gal(b1-4)Glc
# Outline: as §1
# [6] = target: Gal(b1-3)GalNAc(a1-3)[Fuc(a1-2)]Gal(b1-4)GlcNAc
# Outline: as §1
# [7] = target: Gal(b1-3)GalNAc(b1-3)Gal
# Outline: as §1
# [8] = target: Gal(b1-3)GalNAc(b1-3)Gal(a1-4)Gal(b1-4)Glc
# Outline: as §1
# [9] = target: Gal(b1-3)GalNAc(b1-4)Gal(b1-4)Glc
# Outline: as §1
# [10] = target: Gal(b1-3)GalNAc(b1-4)[Neu5Ac(a2-3)]Gal(b1-4)Glc
# Outline: as §1
# [11] = target: Gal(b1-3)GlcNAc
# Outline: as §1
# [12] = target: Gal(b1-3)GlcNAc(a1-3)Gal(b1-4)GlcNAc
# Outline: as §1
# [13] = target: Gal(b1-3)GlcNAc(a1-6)Gal(b1-4)GlcNAc
# Outline: as §1
# [14] = target: Gal(b1-3)GlcNAc(b1-2)Man
# Outline: as §1
# [15] = target: Gal(b1-3)GlcNAc(b1-2)Man(a1-3)[Gal(b1-3)GlcNAc(b1-2)Man(a1-6)]Man(b1-4)GlcNAc(b1-4)GlcNAc
# Outline: as §1
# [16] = target: Gal(b1-3)GlcNAc(b1-2)Man(a1-3)[Gal(b1-3)GlcNAc(b1-2)Man(a1-6)]Man(b1-4)GlcNAc(b1-4)[Fuc(a1-6)]GlcNAc
# Outline: as §1
# [17] = target: Gal(b1-3)GlcNAc(b1-2)Man(a1-3)[GlcNAc(b1-4)][Gal(b1-3)GlcNAc(b1-2)Man(a1-6)]Man(b1-4)GlcNAc(b1-4)GlcNAc
# Outline: as §1
# [18] = target: Gal(b1-3)GlcNAc(b1-2)[Gal(b1-3)GlcNAc(b1-6)]Man(a1-6)[Gal(b1-3)GlcNAc(b1-2)Man(a1-3)]Man(b1-4)GlcNAc(b1-4)GlcNAc
# Outline: as §1
# [19] = target: Gal(b1-3)GlcNAc(b1-3)Gal(b1-3)GlcNAc
# Outline: as §1
# [20] = target: Gal(b1-3)GlcNAc(b1-3)Gal(b1-4)Glc
# Outline: as §1
# [21] = target: Gal(b1-3)GlcNAc(b1-3)Gal(b1-4)GlcNAc
# Outline: as §1
# [22] = target: Gal(b1-3)GlcNAc(b1-3)Gal(b1-4)GlcNAc(b1-2)Man(a1-3)[Gal(b1-3)GlcNAc(b1-3)Gal(b1-4)GlcNAc(b1-2)Man(a1-6)]Man(b1-4)GlcNAc(b1-4)GlcNAc
# Outline: as §1
# [23] = target: Gal(b1-3)GlcNAc(b1-3)Gal(b1-4)GlcNAc(b1-2)[Gal(b1-3)GlcNAc(b1-3)Gal(b1-4)GlcNAc(b1-6)]Man(a1-6)[Gal(b1-3)GlcNAc(b1-3)Gal(b1-4)GlcNAc(b1-2)Man(a1-3)]Man(b1-4)GlcNAc(b1-4)[Fuc(a1-6)]GlcNAc
# Outline: as §1
# [24] = target: Gal(b1-3)GlcNAc(b1-3)Gal(b1-4)GlcNAc(b1-3)Gal(b1-4)GlcNAc(b1-2)[Gal(b1-3)GlcNAc(b1-3)Gal(b1-4)GlcNAc(b1-3)Gal(b1-4)GlcNAc(b1-6)]Man(a1-6)[Gal(b1-3)GlcNAc(b1-3)Gal(b1-4)GlcNAc(b1-3)Gal(b1-4)GlcNAc(b1-2)Man(a1-3)]Man(b1-4)GlcNAc(b1-4)[Fuc(a1-6)]GlcNAc
# Outline: as §1
# [25] = target: Gal(b1-3)GlcNAc(b1-3)Gal(b1-4)GlcNAc(b1-6)[Gal(b1-3)GlcNAc(b1-3)]Gal(b1-4)Glc
# Outline: as §1
# [26] = target: Gal(b1-3)GlcNAc(b1-3)Gal(b1-4)[Fuc(a1-3)]GlcNAc
# Outline: as §1
# [27] = target: Gal(b1-3)GlcNAc(b1-3)Gal(b1-4)[Fuc(a1-3)]GlcNAc(b1-6)[Gal(b1-3)GlcNAc(b1-3)]Gal(b1-4)Glc
# Outline: as §1
# [28] = target: Gal(b1-3)GlcNAc(b1-3)GalNAc
# Outline: as §1
# [29] = target: Gal(b1-3)GlcNAc(b1-6)Gal(b1-4)GlcNAc
# Outline: as §1
# [30] = target: Gal(b1-3)GlcNAc(b1-6)GalNAc
# Outline: as §1
# [31] = target: Gal(b1-3)GlcNAc(b1-6)[Gal(b1-3)]GalNAc
# Outline: as §1
# [32] = target: Gal(b1-3)GlcNAc6S
# Outline: as §1
# [33] = target: Gal(b1-3)[Fuc(a1-4)]GlcNAc
# Outline: as §1
# [34] = target: Gal(b1-3)[Fuc(a1-4)]GlcNAc(b1-2)Man
# Outline: as §1
# [35] = target: Gal(b1-3)[Fuc(a1-4)]GlcNAc(b1-2)Man(a1-3)[Gal(b1-3)[Fuc(a1-4)]GlcNAc(b1-2)Man(a1-6)]Man(b1-4)GlcNAc(b1-4)[Fuc(a1-6)]GlcNAc
# Outline: as §1
# [36] = target: Gal(b1-3)[Fuc(a1-4)]GlcNAc(b1-3)Gal(b1-3)[Fuc(a1-4)]GlcNAc
# Outline: as §1
# [37] = target: Gal(b1-3)[Fuc(a1-4)]GlcNAc(b1-3)Gal(b1-4)[Fuc(a1-3)]GlcNAc
# Outline: as §1
# [38] = target: Gal(b1-3)[Fuc(a1-4)]GlcNAc(b1-6)GalNAc
# Outline: as §1
# [39] = target: Gal(b1-3)[GlcNAc(b1-6)]GalNAc
# Outline: as §1
# [40] = target: Gal(b1-3)[Neu5Ac(a2-6)]GalNAc
# Outline: as §1
# [41] = target: Gal(b1-3)[Neu5Ac(a2-6)]GlcNAc(b1-4)Gal(b1-4)Glc
# Outline: as §1
# [42] = target: Gal(b1-3)[Neu5Ac(b2-6)]GalNAc
# Outline: as §1
# [43] = target: Gal(b1-4)Gal
# Outline: as §1
# [44] = target: Gal(b1-4)GalNAc(a1-3)[Fuc(a1-2)]Gal(b1-4)GlcNAc
# Outline: as §1
# [45] = target: Gal(b1-4)GalNAc(b1-3)[Fuc(a1-2)]Gal(b1-4)GlcNAc
# Outline: as §1
binder,measurement,setting,value
PX15642A-pgi-501-20-501 (Parabacteroides gingivalis) (protein) CELDRDPEGKDFQQPYTSFVQTKQNRDGLYALLRNTENPRMHFYQELQSDMYCTTITDGNSLAPFVNWDLGILNDHGRADEDEVSGIAGYYFVYNRLNQQANAFVNNTEAALQNQVYKNSTEIANAKSFLAEGKVLQALAIWRLMDRFSFHESVTEVNSGAKDLGVILLKEYNPGYIGPRATKAQCYDYILSRLSEAIEVLPENRESVLYVSRDYAYALRARIYLALGEYGKAAADAKMVVDKYPLIGAADASEFENIYRSDANNPEIIFRGFASATLGSFTATTLNGAAPAGKDIKYNPSAVPFQWVVDLYENEDFRKSVYIAKVVKKDKGYLVNKFLEDKAYRDVQDKPNLKVGARYFSVAEVYLILVESALQTGDTPTAEKYLKALSKARGAEVSVVNMEALQAERTRELIGEGSRLRDMVRWSIPNNHDAFETQPGLEGFANTTPLKAQAPVGFYAYTWEFPQRDRQTNPQLIKNWPI,glycan array binding signal (z-score),[1],-0.367
same,glycan array binding signal (z-score),[2],0.322
same,glycan array binding signal (z-score),[3],-0.269
same,glycan array binding signal (z-score),[4],-0.163
same,glycan array binding signal (z-score),[5],1.53
same,glycan array binding signal (z-score),[6],-1.14
same,glycan array binding signal (z-score),[7],-0.725
same,glycan array binding signal (z-score),[8],0.839
same,glycan array binding signal (z-score),[9],0.251
same,glycan array binding signal (z-score),[10],0.15
same,glycan array binding signal (z-score),[11],-0.186
same,glycan array binding signal (z-score),[12],-0.472
same,glycan array binding signal (z-score),[13],-0.002
same,glycan array binding signal (z-score),[14],-0.14
same,glycan array binding signal (z-score),[15],0.32
same,glycan array binding signal (z-score),[16],0.164
same,glycan array binding signal (z-score),[17],1.96
same,glycan array binding signal (z-score),[18],0.007
same,glycan array binding signal (z-score),[19],0.332
same,glycan array binding signal (z-score),[20],-0.14
same,glycan array binding signal (z-score),[21],-0.711
same,glycan array binding signal (z-score),[22],-0.156
same,glycan array binding signal (z-score),[23],0.168
same,glycan array binding signal (z-score),[24],0.763
same,glycan array binding signal (z-score),[25],-0.658
same,glycan array binding signal (z-score),[26],0.782
same,glycan array binding signal (z-score),[27],0.663
same,glycan array binding signal (z-score),[28],-0.201
same,glycan array binding signal (z-score),[29],-1.06
same,glycan array binding signal (z-score),[30],-0.003
same,glycan array binding signal (z-score),[31],-0.113
same,glycan array binding signal (z-score),[32],0.706
same,glycan array binding signal (z-score),[33],-0.298
same,glycan array binding signal (z-score),[34],-0.553
same,glycan array binding signal (z-score),[35],0.231
same,glycan array binding signal (z-score),[36],1.31
same,glycan array binding signal (z-score),[37],-0.586
same,glycan array binding signal (z-score),[38],0.53
same,glycan array binding signal (z-score),[39],-0.337
same,glycan array binding signal (z-score),[40],-0.778
same,glycan array binding signal (z-score),[41],-0.282
same,glycan array binding signal (z-score),[42],-0.258
same,glycan array binding signal (z-score),[43],0.332
same,glycan array binding signal (z-score),[44],-0.578
same,glycan array binding signal (z-score),[45],-0.308

# Shown bar-delimited: part of the list above
binder | measurement | setting | value
PX15642A-pgi-501-20-501 (Parabacteroides gingivalis) (protein) CELDRDPEGKDFQQPYTSFVQTKQNRDGLYALLRNTENPRMHFYQELQSDMYCTTITDGNSLAPFVNWDLGILNDHGRADEDEVSGIAGYYFVYNRLNQQANAFVNNTEAALQNQVYKNSTEIANAKSFLAEGKVLQALAIWRLMDRFSFHESVTEVNSGAKDLGVILLKEYNPGYIGPRATKAQCYDYILSRLSEAIEVLPENRESVLYVSRDYAYALRARIYLALGEYGKAAADAKMVVDKYPLIGAADASEFENIYRSDANNPEIIFRGFASATLGSFTATTLNGAAPAGKDIKYNPSAVPFQWVVDLYENEDFRKSVYIAKVVKKDKGYLVNKFLEDKAYRDVQDKPNLKVGARYFSVAEVYLILVESALQTGDTPTAEKYLKALSKARGAEVSVVNMEALQAERTRELIGEGSRLRDMVRWSIPNNHDAFETQPGLEGFANTTPLKAQAPVGFYAYTWEFPQRDRQTNPQLIKNWPI | glycan array binding signal (z-score) | [29] | -1.06
same | glycan array binding signal (z-score) | [30] | -0.003
same | glycan array binding signal (z-score) | [31] | -0.113

# From the supplement of paper PMC8728848
